Results are given in words; binding and its absence hold for the method and conditions named. A result given as binding can be weak or reduced; the word gives no strength. Blank lines part the entries; values can stand above or below the molecule they belong to.
How the values were obtained:
Experiment in all cases: two-hybrid; yeast Prp31 (wild type and mutants) against Rsa1, Pih1, Rvb1, Rvb2, Hit1; CG1945 mated with Y187, diploids on -Leu-Trp-His plates containing 1.5 mM 3AT; wild-type strains
[1] = target: yeast Prp31 insertion mutant a.a. 92 (yeast) (UniProt P49704)
[2] = target: yeast Prp31 insertion mutant a.a. 118 (yeast) (UniProt P49704)
[3] = target: yeast Prp31 insertion mutant a.a. 227 (yeast) (UniProt P49704)
[4] = target: yeast Prp31 insertion mutant a.a. 123 (yeast) (UniProt P49704)

By UniProt entry, the sequences of proteins in these tests, tags left out. Where a name states a change or a piece, a line headed by the entry shows the natural chain unless it says otherwise.
UniProt P49704: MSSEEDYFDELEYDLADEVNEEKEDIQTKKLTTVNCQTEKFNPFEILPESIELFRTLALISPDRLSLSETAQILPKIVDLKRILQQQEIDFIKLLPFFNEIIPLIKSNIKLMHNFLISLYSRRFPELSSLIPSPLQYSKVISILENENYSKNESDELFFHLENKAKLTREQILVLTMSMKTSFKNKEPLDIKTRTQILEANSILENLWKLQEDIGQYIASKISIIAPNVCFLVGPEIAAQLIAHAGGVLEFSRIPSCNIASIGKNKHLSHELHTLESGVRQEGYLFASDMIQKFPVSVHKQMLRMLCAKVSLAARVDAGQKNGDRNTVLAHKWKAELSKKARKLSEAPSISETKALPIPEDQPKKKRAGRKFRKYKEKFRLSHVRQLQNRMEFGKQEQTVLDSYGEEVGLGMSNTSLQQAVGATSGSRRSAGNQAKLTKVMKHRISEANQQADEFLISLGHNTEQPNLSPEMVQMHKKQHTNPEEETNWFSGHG
UniProt Q12464: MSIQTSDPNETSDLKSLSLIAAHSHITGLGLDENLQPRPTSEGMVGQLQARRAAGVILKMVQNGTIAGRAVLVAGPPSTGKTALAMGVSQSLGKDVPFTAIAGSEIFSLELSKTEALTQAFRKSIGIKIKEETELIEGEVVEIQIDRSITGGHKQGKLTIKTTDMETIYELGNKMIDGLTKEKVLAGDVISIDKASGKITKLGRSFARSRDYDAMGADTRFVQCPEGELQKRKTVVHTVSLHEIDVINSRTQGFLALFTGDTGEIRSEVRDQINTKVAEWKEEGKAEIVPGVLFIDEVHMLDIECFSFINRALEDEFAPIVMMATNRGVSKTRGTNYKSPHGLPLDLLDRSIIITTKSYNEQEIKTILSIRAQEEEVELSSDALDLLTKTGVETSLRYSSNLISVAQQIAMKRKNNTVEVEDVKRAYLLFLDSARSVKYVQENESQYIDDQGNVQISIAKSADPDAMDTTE
UniProt Q03940: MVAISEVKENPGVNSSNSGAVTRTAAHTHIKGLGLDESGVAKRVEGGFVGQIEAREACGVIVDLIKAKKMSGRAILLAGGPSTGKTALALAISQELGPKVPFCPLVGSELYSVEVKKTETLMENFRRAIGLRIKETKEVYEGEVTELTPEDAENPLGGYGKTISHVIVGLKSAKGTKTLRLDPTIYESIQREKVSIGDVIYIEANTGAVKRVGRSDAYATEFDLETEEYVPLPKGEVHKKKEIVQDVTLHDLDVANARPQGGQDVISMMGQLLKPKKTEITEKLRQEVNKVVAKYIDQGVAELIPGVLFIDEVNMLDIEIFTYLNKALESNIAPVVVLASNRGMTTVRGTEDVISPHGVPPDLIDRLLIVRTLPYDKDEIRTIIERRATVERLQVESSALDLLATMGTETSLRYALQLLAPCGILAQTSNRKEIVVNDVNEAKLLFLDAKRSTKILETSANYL

B1: Hit1 (yeast homolog of ZNHIT3) (protein, UniProt P46973 1-164)
chain: MVSSAVKCGICRGVDGKYKCPKCGVRYCSLKCYKDAAKHVHKESEQPRAGTEANVEVVNNDKIINSSLAMNKTLKTKAFDDIYQNSAELQELLKYNTVKFHLAKVYRILSSTVNDGSSGKMNSDLQKELAVNYLNTLRYGGIHYNEAIEEFCQILLDKLNAVKK
binding [1]: binds | binding [2]: no binding | binding [3]: no binding | binding [4]: no binding

B3: Pih1 (yeast homolog of PIH1D1) (protein, UniProt P38768 1-344)
chain: MADFLLRPIKQRHRNEDKYVSVDAADGSVSKIEPIADFVIKTKLLSANGPEKLQDGRKVFINVCHSPLVPKPEVDFNARIVFPLIIQNEWEIPIITSCYRMDHDKKGQECYVWDCCINSDCSRWICDDIQLREILVEWCLESCEIRDSVVLCRDRIAFPKMKKKGAELPALEVLNDELHQDYKAKMHKIIEEEAGDPMSILRGRNDDGDDNNDPDDGTLPPLFPIENKISGAKIEEIDKNEIAHRNLKQAPAPAPAPHEQQEDVPEYEVKMKRFKGAAYKLRILIENKAPNSKPDRFSPSYNFAENILYINGKLSIPLPRDIVVNAADIKIFHIRKERTLYIYI
binding [1]: no binding | binding [2]: no binding | binding [4]: no binding

Now from value to molecule:

binding [1]: no binding | binding [2]: binds | binding [3]: binds | binding [4]: binds
Molecule: Rvb2 (yeast homolog of RuvBL2) (from UniProt Q12464 1-471)

binding [1]: no binding | binding [2]: binds | binding [3]: binds | binding [4]: binds
Molecule: Rvb1 (yeast homolog of RuvBL1) (from UniProt Q03940 1-463)

binding [1]: no binding | binding [2]: no binding | binding [3]: binds | binding [4]: no binding
B2: Rsa1 (yeast homolog of NUFIP) (protein, UniProt Q08932 1-381)
chain: MNYNNFENSKGDGHSRLPKPTYSGTLSDGYDESKIKRQKTDSAFNAAYSPHMYPNSPYYEGSWNTGYTPQLHHVAPHNQYFHPIQPSTQYNYTSPPNYTENYIPPVHQNISYAPALNLQKWPSSYCENTQALKNDKDYQTSISYEDVAIPTVKEIQLIEKNRGKDTFMNEISPVPSSKDQASAEPTEIPRKDPELANSNAEDDHNNLGLEDDDRDEQLESEGLGKVVLVPGTSIALITDEDVKKWREERKKMWLLKISNNKQKHMQEMGIKEDELKSQPSIFKESRKEKQFIQSIQNQVQRGNPKIDLNLKLIQREFANENSQLLDFIRELGDVGLLEYELSQQEKDVLFGSSEDNNKNHYKPNYKNRKPNLSRANFTRNK

From article PMC4605303
